PubChem BioAssay AID540276 (National Center for Advancing Translational Sciences (NCATS), 2011)
Where “and” joins values, the source holds several entries; their conditions need not be identical. Equal entries are not always repeated. Out of some 300,000 compounds screened, about 5,400 (1.8%) were called active. Inconclusive results, whose numbers are uncertain, are shown with a selection of clear calls. The call rests on the fitted dose curve; tested in HEK293 cells. Potencies of inconclusive entries are doubtful fits and often do not repeat.

Assay: qHTS for inhibitors of binding or entry into cells for Marburg Virus
Conditions: Marburg virus pseudotyped entry inhibition, cell reporter; activity change, negative = inhibition: at 37.8 µM (top of the series) unless noted
On the % scale 0 is the no-effect control and ±100 the full control effect; potency means the concentration at half of the fitted maximal effect.

Row | Compound | Potency | activity change, negative = inhibition
1 | Cc1c(O)ccc2c(CN(C)Cc3ccccc3)cc(=O)oc12 | active: 11.6 µM | 
2 | CCOc1cc(CNCCCN2CCOCC2)ccc1OCC(=O)Nc1cccc2ccccc12 | inconclusive: 5.8 µM [inhibitor, full curve, poor fit] | 
3 | Cc1ccc(C(=O)O/N=C/c2c(N3CCOCC3)n(C)c3ccccc23)cc1 | inconclusive: 2.31 µM [inhibitor, full curve, poor fit] | 
4 | CCOC(=O)c1c(-c2ccc(OC)cc2)csc1/N=C/C1C(=O)CCCC1=O | inconclusive: 35.5 µM [inhibitor, single point] | 
5 | CN(CC(=O)NCCc1ccc(Cl)cc1)S(=O)(=O)c1cccs1 |  | inactive: 4.18% [at 46.1 µM]
6 | N#CC1=C(N)Oc2cc(N)ccc2C1c1cc(Br)cs1 (stereo not drawn) | inconclusive: 3.55 µM [inhibitor, full curve] | 
7 | CCN(CC)c1ccc(/C=N/NC(=O)OC)c(O)c1 |  | inactive: -4.56%
8 | CCn1cc(C(=O)NCc2ccco2)c(=O)c2cc(S(=O)(=O)N3CCC(C)CC3)ccc21 | inconclusive: 12.6 µM [inhibitor, partial curve, poor fit] | 
9 | c1ccc2oc(-c3csc(NCC4CCCO4)n3)cc2c1 (stereo not drawn) | inconclusive: 0.631 µM [activator, partial curve] | 
10 | COc1cc(Cl)c(C)cc1NC(=O)CSc1nc2ccccc2o1 | inconclusive: 16.4 µM [inhibitor, partial curve, poor fit] | 
11 | O=c1c2ccccc2c(/C=N/c2ncn[nH]2)c(O)n1Cc1ccccc1 | inconclusive: 2.91 µM [inhibitor, full curve, poor fit] and inconclusive: 4.47 µM [inhibitor, full curve, poor fit] | 
12 | O=C1c2ccccc2S(=O)(=O)N1CC(O)COc1ccc(Br)cc1 (stereo not drawn) | inconclusive: 18.3 µM [activator, single point] | 
13 | COc1ccc(/C(O)=C2\C(=O)C(=O)N(Cc3ccco3)[C@@H]2c2cccs2)cc1 |  | inactive: -1.06%
14 | Cc1ccc(S(=O)(=O)NCC(=O)OCC(=O)c2ccc(Cl)s2)cc1 | inconclusive: 35.5 µM [activator, single point] | 
15 | Cc1ccc(S(=O)(=O)N2CCC(c3nnc(-c4cccc(C)c4)o3)CC2)cc1 |  | inactive: -3.95% [at 46.1 µM]
16 | CC(O)C(C)OC(=O)[C@@H]1C[C@@H]2c3cccc4c3c(cn4C(C)C)C[C@H]2N(C)C1 (stereo partly drawn) | inconclusive: 10 µM [inhibitor, partial curve] | 
17 | Cc1cc(C(=O)C(=O)O)c(C)n1-c1ccc(Cl)cc1 |  | inactive: -7.41% [at 46.1 µM]
18 | O=C(CN1C(=O)NC2(CCCCC2)C1=O)NCCc1ccc(Cl)cc1Cl |  | inactive: 2.33% [at 46.1 µM]

From entry 5 to 6, as listed above:
Row | Compound | Potency | activity change, negative = inhibition
5 | CN(CC(=O)NCCc1ccc(Cl)cc1)S(=O)(=O)c1cccs1 |  | inactive: 4.18% [at 46.1 µM]
6 | N#CC1=C(N)Oc2cc(N)ccc2C1c1cc(Br)cs1 (stereo not drawn) | inconclusive: 3.55 µM [inhibitor, full curve] | 
